# Laboratory results taken from PubChem BioAssay AID1487 (National Center for Advancing Translational Sciences (NCATS), 2009).
# This is one part of the list. Shown are side measurements of this screen, not its main read-out; they come without a call. The list favours compounds with an active or inconclusive main result. The note in brackets gives the kind of curve behind each potency; many fits are weak.
# Test: qHTS Assay for Modulators of Lamin A Splicing
# Details: HeLa LMNA splicing GFP/RFP minigene ratio, 48 h
# How it was run: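 S3 HeLa stable clones carrying a lamin A-EGFP splicing minigene plus DsRed2 were seeded at 600 cells/well in Opti-MEM with 2% FBS, pin-dosed and incubated 48 h at 37°C. Acumen cytometry (488 nm) gave the GFP/RFP total-intensity ratio.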
# [1] = measured here: RFP viability control channel
# [2] = measured here: GFP splicing reporter channel
SMILES,AC50 [1],AC50 [2]
c1ccc(Cc2ccc(OCCn3cncn3)cc2)cc1,"20 µM [rising, single point]",
Cc1cc(C(=O)CSc2nnc(-c3cccs3)n2Cc2ccccc2)c(C)n1C,"11.2 µM [rising, partial curve, poor fit]","7.94 µM [rising, partial curve, poor fit]"
Cn1c(=O)c2ncn(CC(=O)Nc3cccc(-c4nc5ccccc5s4)c3)c2n(C)c1=O,"2.24 µM [rising, full curve]","1.26 µM [rising, full curve]"
O=C(CSc1nccn1C1CCCC1)Nc1ccccc1,"0.00316 µM [falling, full curve, poor fit]",
COc1ccc2c(c1)Cc1sc(NC(=O)c3cccc(Cl)c3)nc1-2,"28.2 µM [falling, partial curve, poor fit]","35.5 µM [falling, single point]"
CCCC(=O)NC(=S)Nc1ccc(CN2CCOCC2)cc1,"8.91 µM [falling, partial curve, poor fit]","1.41 µM [falling, full curve, poor fit]"
COc1ccccc1C(=O)NNC(=O)c1ccc(NC(=O)c2ccccc2)cc1,"0.0282 µM [falling, full curve, poor fit]","0.0398 µM [falling, full curve, poor fit]"
O=C1CCS/C(=N\N=C\c2ccc(Cl)cc2Cl)N1,,"0.794 µM [rising, partial curve, poor fit]"
CCCN(CCC)CCCNC(=O)c1nn(C)c2c1CS(=O)(=O)c1ccccc1-2,,"0.0251 µM [falling, full curve, poor fit]"
CN1C(=O)/C(=C/c2ccc(O)c([N+](=O)[O-])c2)NC1=S,"6.31 µM [falling, full curve]","0.0891 µM [falling, full curve, poor fit]"
COc1cccc(CC2(CO)CCCN(Cc3nc(-c4cccs4)oc3C)C2)c1 (stereo not given),"0.00316 µM [falling, full curve, poor fit]",
Cn1c(=O)c2c(nc(CN3CCN(C(=O)c4ccco4)CC3)n2Cc2cccc(Cl)c2)n(C)c1=O,"0.00355 µM [falling, full curve, poor fit]",
CCOC(=O)c1c(NC(=O)CN2C(=O)NC(C)(c3ccccc3)C2=O)sc(C)c1C (stereo not given),"15.8 µM [falling, single point]",
O=C(CN1C(=O)S/C(=C\C=C\c2ccccc2)C1=O)Nc1cccc(O)c1,"11.2 µM [rising, partial curve, poor fit]",
COC(=O)CCC(=O)OC1(C)C(=O)C=C2C=C(C3CC3)N(CCc3ccccn3)C=C2C1=O (stereo not given),"1.58 µM [rising, partial curve, poor fit]",
O=C(O)/C=C/c1ccc2noc(-c3ccccc3)c2c1,"0.00316 µM [falling, full curve, poor fit]","0.0398 µM [falling, full curve, poor fit]"
O=C(Nc1ccc(N2CCOCC2)c(Cl)c1)c1c(F)c(F)c(F)c(F)c1F,"17.8 µM [falling, partial curve, poor fit]",
Cc1ccccc1C(=O)NC(NC(=O)c1ccccc1C)c1cccc([N+](=O)[O-])c1,"11.2 µM [rising, partial curve]","14.1 µM [rising, single point]"
Cc1ccc(C)c(NC(=O)COc2cccc3c2CCN(Cc2ccccc2)C3=O)c1,"0.1 µM [rising, full curve, poor fit]",
CCN(CCCn1c(SCC#N)nc2ccccc2c1=O)c1ccccc1,"15.8 µM [rising, partial curve]","11.2 µM [rising, partial curve]"
O=c1cc(N2CCN(c3ccc(F)cc3)CC2)[nH]c(=O)n1-c1cccc(Br)c1,"7.94 µM [rising, partial curve]",
N#Cc1c(C(F)(F)F)cc(-c2ccc(Cl)cc2)[nH]c1=O,"25.1 µM [rising, single point]",
Cn1c(N)c(C#N)c(C#N)c1-c1ccccc1,"0.447 µM [rising, full curve]","0.447 µM [rising, full curve]"
COc1cccc(CNC(=O)C2CCCN(S(=O)(=O)c3cn(C)cn3)C2)c1 (stereo not given),"35.5 µM [falling, partial curve, poor fit]","2.24 µM [falling, partial curve, poor fit]"
N#Cc1c(SCC(N)=O)nc(-c2ccccc2)c2c1CCCC2,,"15.8 µM [rising, partial curve, poor fit]"
Cc1ccc(C(=O)c2cc(C)sc2NC(=O)CN2CCN(C(=O)c3ccco3)CC2)cc1,"35.5 µM [rising, single point]","17.8 µM [rising, single point]"

SMILES,AC50 [1],AC50 [2]
O=C(CSCc1ccccc1Br)N/N=C/c1ccc2c(c1)OCO2,"22.4 µM [rising, single point]",
Cc1ccc(NC(=O)C(C)c2ccc(-c3ccccc3)c(F)c2)cc1 (stereo not given),"3.55 µM [rising, single point]",
Cc1ccc(-c2nc3ccccc3s2)cc1S(=O)(=O)N1CCOCC1,"14.1 µM [rising, single point]",
CCN1C/C(=C/c2cccc([N+](=O)[O-])c2)C(=O)/C(=C/c2cccc([N+](=O)[O-])c2)C1,"35.5 µM [falling, single point]",
CC(C)c1ccc(NC(=O)CSC2=Nc3ccccc3C3=NC(CC(=O)NCCc4ccccc4)C(=O)N23)cc1 (stereo not given),"31.6 µM [rising, single point]","35.5 µM [rising, single point]"
Cc1nc2ccc(NC(=O)c3ccc(Cl)c(S(=O)(=O)N(C)c4ccccc4)c3)cc2s1,"3.98 µM [rising, full curve]","2.82 µM [rising, full curve, poor fit]"
CC(c1ccccc1)N(NC(=O)C(O)(c1ccccc1)c1ccccc1)C(=O)c1ccccc1 (stereo not given),"5.62 µM [falling, single point]",
Cn1c(NC(=O)/C=C/c2ccccc2)cc(=O)n(C)c1=O,"35.5 µM [rising, single point]",
Cc1c(NC(=O)c2nn3c(C(F)(F)F)cc(-c4ccccc4)nc3c2Br)c(=O)n(-c2ccccc2)n1C,,"7.08 µM [rising, partial curve, poor fit]"
Cc1ccccc1C(=O)Nc1ccc2nc(SCC(=O)N(C)c3ccccc3)sc2c1,,"2.82 µM [rising, full curve, poor fit]"
CCOc1ccccc1Nc1nnc(SCC(=O)Nc2cc(C)on2)s1,"0.141 µM [rising, full curve]","0.112 µM [rising, full curve]"
Cc1ccc(N2C(=O)CC(N3CCN(C4CCc5ccccc5C4)CC3)C2=O)cc1 (stereo not given),"0.251 µM [falling, full curve, poor fit]",
Cc1cc(Nc2nc3ccccc3nc2Cl)n(-c2ccccc2)n1,"2 µM [falling, partial curve, poor fit]","35.5 µM [falling, single point]"
CCOC(=O)C1CCN(S(=O)(=O)c2ccc(-n3cnnn3)c(C)c2)CC1,"12.6 µM [rising, partial curve, poor fit]","12.6 µM [rising, partial curve, poor fit]"
O=C(Nc1ncc(Cc2ccc(SC(F)F)cc2)s1)c1ccccc1,"17.8 µM [falling, single point]","15.8 µM [falling, single point]"
COc1ccc(C2c3cc(OC)c(OC)cc3CCN2S(C)(=O)=O)cc1OC (stereo not given),"0.112 µM [falling, partial curve, poor fit]","1.12 µM [falling, partial curve, poor fit]"
CCCN(CC(=O)Nc1ccc(Cl)cc1Cl)Cc1cc(=O)n2ccsc2n1,"8.91 µM [falling, partial curve]",
COc1cc(C(=O)NCc2nnc(SCC(=O)Nc3nc4ccccc4s3)o2)cc(OC)c1OC,"0.794 µM [rising, single point]","0.891 µM [rising, full curve, poor fit]"
Cc1ccc2c(c1)C(c1ccc(F)cc1)N(C(=O)c1cc3ccccc3oc1=O)CC(=O)N2 (stereo not given),"14.1 µM [falling, partial curve]",
CCCNC(=O)Cn1nc(C)c2c(C)n(-c3ccccc3)nc2c1=O,,"35.5 µM [rising, single point]"
Cc1nn(-c2ccccc2)c(C)c1/C=N/NC(=O)c1cc(-c2cccc3ccccc23)n[nH]1,"15.8 µM [rising, partial curve]",
Cc1ccc(C)c2sc(NC(=O)c3nc4ccccc4s3)nc12,"0.224 µM [rising, partial curve]",
COc1ccc(OC)c([C@H](O)CNC(=O)CN)c1,"3.16 µM [falling, single point]","0.251 µM [falling, partial curve]"
COc1ccc(CNc2ncncc2-c2ccoc2)c(OC)c1,,"17.8 µM [falling, partial curve, poor fit]"
COc1cc(NS(=O)(=O)c2ccc(C)c(C)c2)c(OC)cc1Cl,"12.6 µM [rising, partial curve]","12.6 µM [rising, single point]"
O=C(c1ccc(Cl)cc1)c1ccc(OCC(=O)N2CCOCC2)cc1,"4.47 µM [rising, partial curve]","0.316 µM [rising, full curve]"

# Part of the list above in order of molecular weight, ascending.
SMILES,AC50 [1],AC50 [2]
CCOc1ccccc1Nc1nnc(SCC(=O)Nc2cc(C)on2)s1,"0.141 µM [rising, full curve]","0.112 µM [rising, full curve]"
Cc1ccc(N2C(=O)CC(N3CCN(C4CCc5ccccc5C4)CC3)C2=O)cc1 (stereo not given),"0.251 µM [falling, full curve, poor fit]",
Cc1nc2ccc(NC(=O)c3ccc(Cl)c(S(=O)(=O)N(C)c4ccccc4)c3)cc2s1,"3.98 µM [rising, full curve]","2.82 µM [rising, full curve, poor fit]"
